{
  "source": "the supplement of paper PMC8728848",
  "binders": {"B1": {"name": "BT4246 (Bacteroides thetaiotaomicron), Q89ZX5 (protein)", "chain": "MGSSHHHHHHENLYFQGHMASDYLDVVPPEQPNIDDAMSSPTRALGFLYSCYGGVSTDLPSAYLGEINSTTDEYVLPYSWNTDGYWGAYAFNTASSTNQDWLWGTTYQYIGQCYLFLQKLENAGSDIASDAEKEQWRAECQFLVAYYHFATLRRYGPIPITDSYIPMDTPTSEYNGRFHFDYCVDWIANQLDEAAKVLPANRTVTNEWGRATSTIAKAVKARLLLYAASPLWNGSFPYPNWQNENFETPGYGKALVSNTYDKSKWERALAACQEALTLATTSGDRELYDDDEYYSRQSLNLPFVPGVADVEDNKEFLKNVMKMRYAVSTRESEGNKEIIWGLSNQFDFYSRYPLRILKKSDGTWHAGYSGVSPTLYTFEHFYTANGKLPEKDLDFTPSSEWFESAGISSREDIIKLNVGREPRFYAWMAFDGGDYGTKFAAGSPLKLEMRNSEMHGYNPSLFNRDHSVTGFLTQKFVDPVTEFYTAGGSTSGTSAPTILFRLAELYLNVAECHAALGNTQEAIDALNPVRERAGIPKLTLADITNNMTIKDWVHNERFVELWNEGHRFFDVRRWAEGAKYFGANKREGLNAEVQSPTFEEFNKRTTVDAPYVWENRMYLNPVFYNEVYKNPQMVQAPGY"}},
  "assay_in_all_cases": "glycan array binding signal (z-score within array); higher = stronger binding",
  "details_in_all_cases": "glycan notation: IUPAC condensed, linker removed",
  "key": {"[1]": {"molecular_target": "Gal(b1-4)GalNAc(b1-3)[Fuc(a1-2)]Gal(b1-4)GlcNAc", "summary_of_the_method": "(§1)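 From the Consortium for Functional Glycomics database, 3228 arrays were curated, keeping only those whose protein sequence was available. Binding is given as a within-array Z-score averaged across arrays sharing a protein sequence and across linkers. Negative Z-scores can be read as non-binding.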"}, "[2]": {"molecular_target": "Gal(b1-4)Glc", "summary_of_the_method": "as §1"}, "[3]": {"molecular_target": "Gal(b1-4)Glc6S", "summary_of_the_method": "as §1"}, "[4]": {"molecular_target": "Gal(b1-4)GlcNAc", "summary_of_the_method": "as §1"}, "[5]": {"molecular_target": "Gal(b1-4)GlcNAc(a1-6)Gal(b1-4)GlcNAc", "summary_of_the_method": "as §1"}, "[6]": {"molecular_target": "Gal(b1-4)GlcNAc(b1-2)Man", "summary_of_the_method": "as §1"}, "[7]": {"molecular_target": "Gal(b1-4)GlcNAc(b1-2)Man(a1-3)Man(b1-4)GlcNAc(b1-4)GlcNAc", "summary_of_the_method": "as §1"}, "[8]": {"molecular_target": "Gal(b1-4)GlcNAc(b1-2)Man(a1-3)[Gal(b1-4)GlcNAc(b1-2)Man(a1-6)]Man(b1-4)GlcNAc(b1-4)GlcNAc", "summary_of_the_method": "as §1"}, "[9]": {"molecular_target": "Gal(b1-4)GlcNAc(b1-2)Man(a1-3)[Gal(b1-4)GlcNAc(b1-2)Man(a1-6)]Man(b1-4)GlcNAc(b1-4)[Fuc(a1-6)]GlcNAc", "summary_of_the_method": "as §1"}, "[10]": {"molecular_target": "Gal(b1-4)GlcNAc(b1-2)Man(a1-3)[Gal(b1-4)GlcNAc(b1-2)Man(a1-6)][Gal(b1-4)GlcNAc(b1-4)]Man(b1-4)GlcNAc(b1-4)[Fuc(a1-6)]GlcNAc", "summary_of_the_method": "as §1"}, "[11]": {"molecular_target": "Gal(b1-4)GlcNAc(b1-2)Man(a1-3)[Gal(b1-4)GlcNAc(b1-2)Man(a1-6)][GlcNAc(b1-4)]Man(b1-4)GlcNAc(b1-4)[Fuc(a1-6)]GlcNAc", "summary_of_the_method": "as §1"}, "[12]": {"molecular_target": "Gal(b1-4)GlcNAc(b1-2)Man(a1-3)[GlcNAc(b1-2)Man(a1-6)]Man(b1-4)GlcNAc(b1-4)GlcNAc", "summary_of_the_method": "as §1"}, "[13]": {"molecular_target": "Gal(b1-4)GlcNAc(b1-2)Man(a1-3)[GlcNAc(b1-4)][Gal(b1-4)GlcNAc(b1-2)Man(a1-6)]Man(b1-4)GlcNAc(b1-4)GlcNAc", "summary_of_the_method": "as §1"}, "[14]": {"molecular_target": "Gal(b1-4)GlcNAc(b1-2)Man(a1-3)[Man(a1-6)]Man(b1-4)GlcNAc(b1-4)GlcNAc", "summary_of_the_method": "as §1"}, "[15]": {"molecular_target": "Gal(b1-4)GlcNAc(b1-2)Man(a1-6)Man(b1-4)GlcNAc(b1-4)GlcNAc", "summary_of_the_method": "as §1"}, "[16]": {"molecular_target": "Gal(b1-4)GlcNAc(b1-2)Man(a1-6)[GlcNAc(b1-2)Man(a1-3)]Man(b1-4)GlcNAc(b1-4)GlcNAc", "summary_of_the_method": "as §1"}, "[17]": {"molecular_target": "Gal(b1-4)GlcNAc(b1-2)Man(a1-6)[Man(a1-3)]Man(b1-4)GlcNAc(b1-4)GlcNAc", "summary_of_the_method": "as §1"}, "[18]": {"molecular_target": "Gal(b1-4)GlcNAc(b1-2)[Gal(b1-4)GlcNAc(b1-4)]Man(a1-3)[Gal(b1-4)GlcNAc(b1-2)Man(a1-6)]Man(b1-4)GlcNAc(b1-4)GlcNAc", "summary_of_the_method": "as §1"}, "[19]": {"molecular_target": "Gal(b1-4)GlcNAc(b1-2)[Gal(b1-4)GlcNAc(b1-4)]Man(a1-3)[Gal(b1-4)GlcNAc(b1-2)[Gal(b1-4)GlcNAc(b1-6)]Man(a1-6)]Man(b1-4)GlcNAc(b1-4)GlcNAc", "summary_of_the_method": "as §1"}, "[20]": {"molecular_target": "Gal(b1-4)GlcNAc(b1-2)[Gal(b1-4)GlcNAc(b1-4)]Man(a1-3)[GlcNAc(b1-4)][Gal(b1-4)GlcNAc(b1-2)Man(a1-6)]Man(b1-4)GlcNAc(b1-4)GlcNAc", "summary_of_the_method": "as §1"}, "[21]": {"molecular_target": "Gal(b1-4)GlcNAc(b1-2)[Gal(b1-4)GlcNAc(b1-4)]Man(a1-3)[GlcNAc(b1-4)][Gal(b1-4)GlcNAc(b1-2)[Gal(b1-4)GlcNAc(b1-6)]Man(a1-6)]Man(b1-4)GlcNAc(b1-4)GlcNAc", "summary_of_the_method": "as §1"}, "[22]": {"molecular_target": "Gal(b1-4)GlcNAc(b1-2)[Gal(b1-4)GlcNAc(b1-6)]Man(a1-6)[Gal(b1-4)GlcNAc(b1-2)Man(a1-3)]Man(b1-4)GlcNAc(b1-4)GlcNAc", "summary_of_the_method": "as §1"}, "[23]": {"molecular_target": "Gal(b1-4)GlcNAc(b1-2)[Gal(b1-4)GlcNAc(b1-6)]Man(a1-6)[Gal(b1-4)GlcNAc(b1-2)Man(a1-3)]Man(b1-4)GlcNAc(b1-4)[Fuc(a1-6)]GlcNAc", "summary_of_the_method": "as §1"}, "[24]": {"molecular_target": "Gal(b1-4)GlcNAc(b1-2)[Gal(b1-4)GlcNAc(b1-6)]Man(a1-6)[GlcNAc(b1-4)][Gal(b1-4)GlcNAc(b1-2)Man(a1-3)]Man(b1-4)GlcNAc(b1-4)GlcNAc", "summary_of_the_method": "as §1"}, "[25]": {"molecular_target": "Gal(b1-4)GlcNAc(b1-2)[Gal(b1-4)GlcNAc(b1-6)]Man(a1-6)[GlcNAc(b1-4)][Gal(b1-4)GlcNAc(b1-2)[Gal(b1-4)GlcNAc(b1-4)]Man(a1-3)]Man(b1-4)GlcNAc(b1-4)[Fuc(a1-6)]GlcNAc", "summary_of_the_method": "as §1"}, "[26]": {"molecular_target": "Gal(b1-4)GlcNAc(b1-3)Gal(b1-3)GalNAc", "summary_of_the_method": "as §1"}, "[27]": {"molecular_target": "Gal(b1-4)GlcNAc(b1-3)Gal(b1-3)GlcNAc", "summary_of_the_method": "as §1"}, "[28]": {"molecular_target": "Gal(b1-4)GlcNAc(b1-3)Gal(b1-4)Glc", "summary_of_the_method": "as §1"}, "[29]": {"molecular_target": "Gal(b1-4)GlcNAc(b1-3)Gal(b1-4)GlcNAc", "summary_of_the_method": "as §1"}, "[30]": {"molecular_target": "Gal(b1-4)GlcNAc(b1-3)Gal(b1-4)GlcNAc(b1-2)Man(a1-3)[Gal(b1-4)GlcNAc(b1-3)Gal(b1-4)GlcNAc(b1-2)Man(a1-6)]Man(b1-4)GlcNAc(b1-4)GlcNAc", "summary_of_the_method": "as §1"}},
  "note": "This is one part of the list.",
  "data": [
    {"binder": "B1", "values": [
      {"measurement": "glycan array binding signal (z-score)", "setting": "[1]", "result": -0.68},
      {"measurement": "glycan array binding signal (z-score)", "setting": "[2]", "result": 0.047},
      {"measurement": "glycan array binding signal (z-score)", "setting": "[3]", "result": 0.15},
      {"measurement": "glycan array binding signal (z-score)", "setting": "[4]", "result": -1.31},
      {"measurement": "glycan array binding signal (z-score)", "setting": "[5]", "result": -0.67},
      {"measurement": "glycan array binding signal (z-score)", "setting": "[6]", "result": 0.532},
      {"measurement": "glycan array binding signal (z-score)", "setting": "[7]", "result": -1.13},
      {"measurement": "glycan array binding signal (z-score)", "setting": "[8]", "result": -0.968},
      {"measurement": "glycan array binding signal (z-score)", "setting": "[9]", "result": -0.554},
      {"measurement": "glycan array binding signal (z-score)", "setting": "[10]", "result": -0.434},
      {"measurement": "glycan array binding signal (z-score)", "setting": "[11]", "result": -0.489},
      {"measurement": "glycan array binding signal (z-score)", "setting": "[12]", "result": -1.08},
      {"measurement": "glycan array binding signal (z-score)", "setting": "[13]", "result": 0.387},
      {"measurement": "glycan array binding signal (z-score)", "setting": "[14]", "result": 2.35},
      {"measurement": "glycan array binding signal (z-score)", "setting": "[15]", "result": -0.53},
      {"measurement": "glycan array binding signal (z-score)", "setting": "[16]", "result": 0.135},
      {"measurement": "glycan array binding signal (z-score)", "setting": "[17]", "result": 0.036},
      {"measurement": "glycan array binding signal (z-score)", "setting": "[18]", "result": -0.145},
      {"measurement": "glycan array binding signal (z-score)", "setting": "[19]", "result": -0.529},
      {"measurement": "glycan array binding signal (z-score)", "setting": "[20]", "result": 0.217},
      {"measurement": "glycan array binding signal (z-score)", "setting": "[21]", "result": 0.603},
      {"measurement": "glycan array binding signal (z-score)", "setting": "[22]", "result": -1.01},
      {"measurement": "glycan array binding signal (z-score)", "setting": "[23]", "result": -0.607},
      {"measurement": "glycan array binding signal (z-score)", "setting": "[24]", "result": -0.45},
      {"measurement": "glycan array binding signal (z-score)", "setting": "[25]", "result": -0.593},
      {"measurement": "glycan array binding signal (z-score)", "setting": "[26]", "result": -0.874},
      {"measurement": "glycan array binding signal (z-score)", "setting": "[27]", "result": -1.17},
      {"measurement": "glycan array binding signal (z-score)", "setting": "[28]", "result": -0.144},
      {"measurement": "glycan array binding signal (z-score)", "setting": "[29]", "result": 1.75},
      {"measurement": "glycan array binding signal (z-score)", "setting": "[30]", "result": 0.897}
    ]}
  ]
}
